Measurements published in the M2OR odorant receptor database.
Numbering of substitutions follows the chain as printed. The list shows a part of the results, in another mix than the full data. The calls were merged from several studies; some rest on single wells. The list shows a part of the results.

Protein sequences, listed by entry. Tags and fused reporters are not part of them. Lines headed by an entry give the natural chain unless they say otherwise; changes in a name come on top.
UniProt Q8NH64: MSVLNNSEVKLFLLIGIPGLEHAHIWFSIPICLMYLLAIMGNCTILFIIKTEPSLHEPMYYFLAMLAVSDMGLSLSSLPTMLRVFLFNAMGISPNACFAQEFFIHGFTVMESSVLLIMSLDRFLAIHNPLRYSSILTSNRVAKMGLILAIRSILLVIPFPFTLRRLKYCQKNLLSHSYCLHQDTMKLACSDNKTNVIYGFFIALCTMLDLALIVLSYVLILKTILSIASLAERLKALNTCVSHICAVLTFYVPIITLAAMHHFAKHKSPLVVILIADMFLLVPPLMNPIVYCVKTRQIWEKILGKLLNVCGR
UniProt Q9Y5P0: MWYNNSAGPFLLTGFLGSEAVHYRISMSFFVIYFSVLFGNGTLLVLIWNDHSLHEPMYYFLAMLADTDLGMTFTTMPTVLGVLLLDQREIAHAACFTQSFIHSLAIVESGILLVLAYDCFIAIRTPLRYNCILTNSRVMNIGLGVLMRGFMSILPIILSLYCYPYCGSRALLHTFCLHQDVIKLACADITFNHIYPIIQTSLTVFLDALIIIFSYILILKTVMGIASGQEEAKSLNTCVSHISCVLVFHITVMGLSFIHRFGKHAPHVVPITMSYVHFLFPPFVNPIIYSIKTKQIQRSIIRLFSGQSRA

What was measured:
Settings in all cases: stereoisomer not certain
OR4N4 (Homo sapiens) = molecular target: T1, OR4N4 (Homo sapiens) (UniProt Q8N0Y3)
T1 sequence (whole entry): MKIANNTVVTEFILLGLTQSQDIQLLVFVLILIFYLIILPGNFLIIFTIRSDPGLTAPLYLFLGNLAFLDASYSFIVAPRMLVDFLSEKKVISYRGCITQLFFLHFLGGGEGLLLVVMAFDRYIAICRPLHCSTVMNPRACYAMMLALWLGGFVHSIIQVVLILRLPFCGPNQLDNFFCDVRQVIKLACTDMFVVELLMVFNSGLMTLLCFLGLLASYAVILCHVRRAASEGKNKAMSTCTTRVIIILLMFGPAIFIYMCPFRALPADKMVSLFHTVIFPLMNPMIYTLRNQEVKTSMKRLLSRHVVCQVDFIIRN
Outline: (§1)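 Whether a receptor–molecule pair is responsive (active) rests on the original authors' judgment that its measured signal was statistically different from baseline. Pairs without that judgment are non-responsive (inactive). Sources used varied assay methods, commonly transient luciferase assays in mammalian cell lines.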

OR4N5 (Homo sapiens) = molecular target: T2, OR4N5 (Homo sapiens) (UniProt Q8IXE1)
T2 sequence (whole entry): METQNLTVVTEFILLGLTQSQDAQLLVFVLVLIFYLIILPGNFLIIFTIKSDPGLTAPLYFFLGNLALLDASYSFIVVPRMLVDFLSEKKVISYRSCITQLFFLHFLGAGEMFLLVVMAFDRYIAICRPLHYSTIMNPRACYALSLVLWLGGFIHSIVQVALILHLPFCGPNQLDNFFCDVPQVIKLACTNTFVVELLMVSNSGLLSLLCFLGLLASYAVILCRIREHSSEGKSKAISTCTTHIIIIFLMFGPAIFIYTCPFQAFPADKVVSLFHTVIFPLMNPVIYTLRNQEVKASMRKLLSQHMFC
Outline: as §1

OR4P4 [1] = test system: T3, OR4P4
T3 sequence (whole entry): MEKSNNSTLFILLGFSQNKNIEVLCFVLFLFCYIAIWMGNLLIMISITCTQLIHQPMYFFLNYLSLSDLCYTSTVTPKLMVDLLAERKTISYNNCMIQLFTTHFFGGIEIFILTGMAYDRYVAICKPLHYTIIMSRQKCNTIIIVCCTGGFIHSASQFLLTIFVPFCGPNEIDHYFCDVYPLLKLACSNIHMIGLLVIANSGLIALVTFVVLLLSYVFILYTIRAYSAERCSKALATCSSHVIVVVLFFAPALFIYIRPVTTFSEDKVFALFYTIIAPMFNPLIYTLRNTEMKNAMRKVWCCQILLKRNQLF
Outline: as §1

OR4P4 [2] = test system: T4, OR4P4; remark: listed apart in the source
T4 sequence (whole entry): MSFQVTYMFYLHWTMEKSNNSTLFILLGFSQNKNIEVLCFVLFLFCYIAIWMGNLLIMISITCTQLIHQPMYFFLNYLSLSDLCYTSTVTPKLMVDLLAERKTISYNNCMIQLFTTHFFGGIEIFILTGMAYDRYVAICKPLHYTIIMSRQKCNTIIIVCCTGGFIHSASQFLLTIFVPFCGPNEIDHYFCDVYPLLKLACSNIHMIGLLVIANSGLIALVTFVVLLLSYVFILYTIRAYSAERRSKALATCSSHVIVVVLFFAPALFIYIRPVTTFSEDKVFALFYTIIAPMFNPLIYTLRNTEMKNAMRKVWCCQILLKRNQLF
Outline: as §1

OR4Q3 (Homo sapiens) = molecular target: T5, OR4Q3 (Homo sapiens) (UniProt Q8NH05)
T5 sequence (whole entry): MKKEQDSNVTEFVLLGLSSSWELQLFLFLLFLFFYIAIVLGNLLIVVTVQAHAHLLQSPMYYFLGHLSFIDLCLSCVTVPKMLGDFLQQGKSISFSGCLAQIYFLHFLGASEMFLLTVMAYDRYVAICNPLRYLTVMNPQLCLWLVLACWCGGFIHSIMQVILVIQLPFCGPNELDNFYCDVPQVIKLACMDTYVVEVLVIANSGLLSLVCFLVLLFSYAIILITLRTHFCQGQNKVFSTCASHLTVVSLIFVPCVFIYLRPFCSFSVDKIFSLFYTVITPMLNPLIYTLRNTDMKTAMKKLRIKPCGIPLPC
Outline: as §1

OR4S1 (Homo sapiens) = molecular target: T6, OR4S1 (Homo sapiens) (UniProt Q8NGB4)
T6 sequence (whole entry): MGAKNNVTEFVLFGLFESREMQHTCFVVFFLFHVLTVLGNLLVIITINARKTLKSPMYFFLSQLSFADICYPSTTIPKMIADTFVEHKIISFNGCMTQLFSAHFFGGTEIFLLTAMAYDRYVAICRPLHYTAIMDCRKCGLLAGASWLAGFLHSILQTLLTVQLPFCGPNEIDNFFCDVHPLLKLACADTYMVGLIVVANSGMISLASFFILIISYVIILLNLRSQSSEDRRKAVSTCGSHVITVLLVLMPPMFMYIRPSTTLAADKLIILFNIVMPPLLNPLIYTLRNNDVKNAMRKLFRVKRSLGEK
Outline: as §1

OR4S2 (Homo sapiens) = molecular target: T7, OR4S2 (Homo sapiens) (UniProt Q8NH73)
T7 sequence (whole entry): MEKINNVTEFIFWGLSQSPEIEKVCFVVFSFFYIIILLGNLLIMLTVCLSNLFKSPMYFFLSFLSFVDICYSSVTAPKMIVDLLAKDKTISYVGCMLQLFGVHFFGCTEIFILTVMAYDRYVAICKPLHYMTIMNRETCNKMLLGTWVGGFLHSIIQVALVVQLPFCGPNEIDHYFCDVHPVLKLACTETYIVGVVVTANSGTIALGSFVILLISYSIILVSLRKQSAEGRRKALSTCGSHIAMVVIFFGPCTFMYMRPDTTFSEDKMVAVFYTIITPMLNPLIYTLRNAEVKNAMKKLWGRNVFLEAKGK
Outline: as §1

OR4X1 = test system: T8, OR4X1
T8 sequence (whole entry): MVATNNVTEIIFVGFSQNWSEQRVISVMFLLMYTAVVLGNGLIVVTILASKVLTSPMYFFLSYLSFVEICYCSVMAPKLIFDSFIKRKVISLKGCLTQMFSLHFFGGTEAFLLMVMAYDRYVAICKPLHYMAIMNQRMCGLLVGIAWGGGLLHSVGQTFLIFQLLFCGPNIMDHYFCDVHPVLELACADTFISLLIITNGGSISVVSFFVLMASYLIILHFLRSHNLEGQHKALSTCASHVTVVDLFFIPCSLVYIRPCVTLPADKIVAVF
Outline: as §1

OR4X2 (Homo sapiens) = molecular target: T9, OR4X2 (Homo sapiens) (UniProt Q8NGF9)
T9 sequence (whole entry): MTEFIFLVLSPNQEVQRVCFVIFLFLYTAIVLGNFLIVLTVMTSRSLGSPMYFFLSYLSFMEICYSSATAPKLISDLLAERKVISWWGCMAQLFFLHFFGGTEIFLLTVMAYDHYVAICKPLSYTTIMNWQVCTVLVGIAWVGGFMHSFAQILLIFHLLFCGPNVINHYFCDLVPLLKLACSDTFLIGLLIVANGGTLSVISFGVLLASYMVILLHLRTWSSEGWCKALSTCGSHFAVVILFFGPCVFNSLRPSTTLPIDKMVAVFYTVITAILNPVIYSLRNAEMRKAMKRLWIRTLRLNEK
Outline: as §1

OR51A2 (Homo sapiens) = molecular target: T10, OR51A2 (Homo sapiens) (UniProt Q8NGJ7)
T10 sequence (whole entry): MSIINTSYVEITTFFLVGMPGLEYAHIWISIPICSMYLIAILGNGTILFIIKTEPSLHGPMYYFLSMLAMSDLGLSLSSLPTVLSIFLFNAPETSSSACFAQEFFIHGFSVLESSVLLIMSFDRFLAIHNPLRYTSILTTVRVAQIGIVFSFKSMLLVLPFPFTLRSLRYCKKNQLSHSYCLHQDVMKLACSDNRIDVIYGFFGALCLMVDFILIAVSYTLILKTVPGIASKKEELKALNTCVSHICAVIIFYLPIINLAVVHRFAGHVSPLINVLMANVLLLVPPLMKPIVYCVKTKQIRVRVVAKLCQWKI
Outline: as §1

OR51B2 (Homo sapiens) = molecular target: T11, OR51B2 (Homo sapiens) (UniProt Q9Y5P1)
T11 sequence (whole entry): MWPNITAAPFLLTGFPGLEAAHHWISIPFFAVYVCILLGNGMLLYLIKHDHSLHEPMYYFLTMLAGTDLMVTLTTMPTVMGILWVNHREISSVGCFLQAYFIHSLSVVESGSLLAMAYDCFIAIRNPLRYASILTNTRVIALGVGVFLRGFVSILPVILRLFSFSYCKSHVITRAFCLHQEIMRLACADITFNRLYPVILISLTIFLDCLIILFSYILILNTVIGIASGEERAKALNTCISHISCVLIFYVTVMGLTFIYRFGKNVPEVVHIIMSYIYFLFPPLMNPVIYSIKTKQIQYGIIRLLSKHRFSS
Outline: as §1

OR51A4 (Homo sapiens) = molecular target: T12, OR51A4 (Homo sapiens) (UniProt Q8NGJ6)
T12 sequence (whole entry): T10 sequence (whole entry) with G59E, T94I, S97N, S167N, P227L, E235Q, G267R, M288T, K289N, W311R
Outline: as §1

OR51A7 (Homo sapiens) = OR51A7 (Homo sapiens) (UniProt Q8NH64)
Outline: as §1

OR51B4 (Homo sapiens) = OR51B4 (Homo sapiens) (UniProt Q9Y5P0)
Outline: as §1

OR51B5 (Homo sapiens) = molecular target: T13, OR51B5 (Homo sapiens) (UniProt Q9H339)
T13 sequence (whole entry): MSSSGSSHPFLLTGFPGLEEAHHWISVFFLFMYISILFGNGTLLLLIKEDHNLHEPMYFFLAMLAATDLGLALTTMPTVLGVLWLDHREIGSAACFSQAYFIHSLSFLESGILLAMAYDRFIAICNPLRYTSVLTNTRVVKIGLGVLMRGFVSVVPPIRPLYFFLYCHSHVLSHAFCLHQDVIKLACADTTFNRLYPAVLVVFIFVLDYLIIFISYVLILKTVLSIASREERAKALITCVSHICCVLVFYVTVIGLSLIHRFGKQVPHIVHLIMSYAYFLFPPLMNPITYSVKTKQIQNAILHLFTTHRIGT
Outline: as §1

Measured: odorant receptor agonist call;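 note: active if original authors judged signal statistically different from baseline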

CCCCCCOC(=O)CCC
inactive: OR4N4 (Homo sapiens) | OR4N5 (Homo sapiens) | OR4P4 [1] | OR4P4 [2] | OR4Q3 (Homo sapiens) | OR4S1 (Homo sapiens) | OR4S2 (Homo sapiens) | OR4X1 | OR4X2 (Homo sapiens) | OR51A2 (Homo sapiens) | OR51B2 (Homo sapiens)

COC(=O)c1ccccc1O
inactive: OR4N4 (Homo sapiens) | OR4N5 (Homo sapiens) | OR4P4 [1] | OR4P4 [2] | OR4Q3 (Homo sapiens) | OR4S1 (Homo sapiens) | OR4S2 (Homo sapiens) | OR4X1 | OR4X2 (Homo sapiens) | OR51A2 (Homo sapiens) | OR51B2 (Homo sapiens)

COc1cc(C)ccc1O
inactive: OR4N4 (Homo sapiens) | OR4N5 (Homo sapiens) | OR4P4 [1] | OR4P4 [2] | OR4Q3 (Homo sapiens) | OR4S1 (Homo sapiens) | OR4S2 (Homo sapiens) | OR4X2 (Homo sapiens) | OR51A2 (Homo sapiens) | OR51B2 (Homo sapiens)
active: OR4X1

CCCC(=O)O
inactive: OR4N4 (Homo sapiens) | OR4N5 (Homo sapiens) | OR4P4 [1] | OR4P4 [2] | OR4Q3 (Homo sapiens) | OR4S1 (Homo sapiens) | OR4S2 (Homo sapiens) | OR4X1 | OR4X2 (Homo sapiens) | OR51A2 (Homo sapiens) | OR51A4 (Homo sapiens) | OR51A7 (Homo sapiens) | OR51B2 (Homo sapiens) | OR51B4 (Homo sapiens) | OR51B5 (Homo sapiens)

CCCCCOC(C)=O
inactive: OR4N4 (Homo sapiens) | OR4N5 (Homo sapiens) | OR4P4 [1] | OR4P4 [2] | OR4Q3 (Homo sapiens) | OR4S1 (Homo sapiens) | OR4S2 (Homo sapiens) | OR4X1 | OR4X2 (Homo sapiens) | OR51A2 (Homo sapiens) | OR51B2 (Homo sapiens)

CC1=CCC(C(C)(C)O)CC1 (stereo not drawn)
inactive: OR4N4 (Homo sapiens) | OR4N5 (Homo sapiens) | OR4P4 [1] | OR4P4 [2] | OR4Q3 (Homo sapiens) | OR4S1 (Homo sapiens) | OR4S2 (Homo sapiens) | OR4X1 | OR4X2 (Homo sapiens) | OR51A2 (Homo sapiens) | OR51B2 (Homo sapiens)

CC1=NC(C)SC1C (stereo not drawn)
inactive: OR4N4 (Homo sapiens) | OR4N5 (Homo sapiens) | OR4P4 [1] | OR4P4 [2] | OR4Q3 (Homo sapiens) | OR4S1 (Homo sapiens) | OR4S2 (Homo sapiens) | OR4X1 | OR4X2 (Homo sapiens)

O=C1CCCCC1
inactive: OR4N4 (Homo sapiens) | OR4N5 (Homo sapiens) | OR4P4 [1] | OR4P4 [2] | OR4Q3 (Homo sapiens) | OR4S1 (Homo sapiens) | OR4S2 (Homo sapiens) | OR4X1 | OR4X2 (Homo sapiens)

CCCCCCCCOC(C)=O
inactive: OR4N4 (Homo sapiens) | OR4N5 (Homo sapiens) | OR4P4 [1] | OR4P4 [2] | OR4Q3 (Homo sapiens) | OR4S1 (Homo sapiens) | OR4S2 (Homo sapiens) | OR4X1 | OR4X2 (Homo sapiens) | OR51A2 (Homo sapiens) | OR51B2 (Homo sapiens)

C=CCSCC=C
inactive: OR4N4 (Homo sapiens) | OR4N5 (Homo sapiens) | OR4P4 [1] | OR4P4 [2] | OR4Q3 (Homo sapiens) | OR4S1 (Homo sapiens) | OR4S2 (Homo sapiens) | OR4X1 | OR4X2 (Homo sapiens) | OR51A2 (Homo sapiens) | OR51B2 (Homo sapiens)

O=C1CCCCCCCCCCCC(=O)OCCO1
active: OR4X1 | OR51B2 (Homo sapiens)
inactive: OR4N4 (Homo sapiens) | OR4N5 (Homo sapiens) | OR4P4 [1] | OR4P4 [2] | OR4Q3 (Homo sapiens) | OR4S1 (Homo sapiens) | OR4S2 (Homo sapiens) | OR4X2 (Homo sapiens) | OR51A2 (Homo sapiens)

CC(=O)OCC=C(C)CCC=C(C)C
inactive: OR4N4 (Homo sapiens) | OR4N5 (Homo sapiens) | OR4P4 [1] | OR4P4 [2] | OR4Q3 (Homo sapiens) | OR4S1 (Homo sapiens) | OR4S2 (Homo sapiens) | OR4X1 | OR4X2 (Homo sapiens) | OR51A2 (Homo sapiens) | OR51B2 (Homo sapiens)

c1ccc(Oc2ccccc2)cc1
inactive: OR4N4 (Homo sapiens) | OR4N5 (Homo sapiens) | OR4P4 [1] | OR4P4 [2] | OR4Q3 (Homo sapiens) | OR4S1 (Homo sapiens) | OR4S2 (Homo sapiens) | OR4X1 | OR4X2 (Homo sapiens) | OR51A2 (Homo sapiens) | OR51B2 (Homo sapiens)
